# Laboratory results taken from article doi:10.1101/856369.
# By UniProt entry, the sequences of proteins in these tests, tags left out. Where a name states a change or a piece, a line headed by the entry shows the natural chain unless it says otherwise.
# UniProt Q8BKX1: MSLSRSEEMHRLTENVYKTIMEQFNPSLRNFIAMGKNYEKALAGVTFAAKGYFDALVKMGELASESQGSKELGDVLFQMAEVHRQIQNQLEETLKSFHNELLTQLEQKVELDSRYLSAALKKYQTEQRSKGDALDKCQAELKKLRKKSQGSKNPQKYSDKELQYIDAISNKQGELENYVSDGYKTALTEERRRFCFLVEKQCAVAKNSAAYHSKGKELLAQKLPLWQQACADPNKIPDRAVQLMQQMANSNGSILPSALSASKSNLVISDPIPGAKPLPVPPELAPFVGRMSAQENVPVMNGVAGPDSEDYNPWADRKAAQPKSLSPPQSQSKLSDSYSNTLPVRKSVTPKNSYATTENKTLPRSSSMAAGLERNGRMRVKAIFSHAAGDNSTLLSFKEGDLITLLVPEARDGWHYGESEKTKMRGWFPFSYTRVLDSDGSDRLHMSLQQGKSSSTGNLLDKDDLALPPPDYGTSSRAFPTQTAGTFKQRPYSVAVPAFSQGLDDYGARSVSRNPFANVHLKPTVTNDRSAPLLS
# UniProt Q15286: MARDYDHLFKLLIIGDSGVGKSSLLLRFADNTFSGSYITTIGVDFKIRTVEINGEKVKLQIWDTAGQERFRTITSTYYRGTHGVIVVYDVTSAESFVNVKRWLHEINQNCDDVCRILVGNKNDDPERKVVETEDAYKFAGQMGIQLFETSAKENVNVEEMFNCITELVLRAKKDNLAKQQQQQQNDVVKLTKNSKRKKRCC
# Like-named read-outs stand apart in the source and are kept apart here. No constants are given. Whether binding was seen depends on the method and setting. For part of these data: In cells and extracts the contact can be indirect. Some entries that bind do so weakly or less than the wild type.
# Key:
# [1] = target: Flag-IRSp53 (UniProt Q8BKX1); experiment: co-IP
# [2] = target: GFP-IRSp53 I-BAR* (murine) (UniProt Q8BKX1); experiment: co-IP
# [3] = target: recombinant purified GST-RAB35S22N (UniProt Q15286); experiment: far-Western, overlay or dot blot
# [4] = target: recombinant purified GST-RAB35S22N (UniProt Q15286); experiment: far-Western, overlay or dot blot; remark: listed apart in the source
# [5] = target: recombinant purified RAB35Q67L (UniProt Q15286); experiment: far-Western, overlay or dot blot
substance,measurement,setting,value
GFP-RAB35 (from UniProt Q15286 1-201),binding,[1],binds
RFP-RAB35S22N (from UniProt Q15286 1-201),binding,[2],no binding
"recombinant purified IRSp53 I-BAR* (K142E, K143E, K146E, K147E) (from UniProt Q8BKX1 1-535)",binding,[3],no binding (tested: 30 nM)
recombinant purified IRSp53 full-length WT (from UniProt Q8BKX1 1-535),binding,[4],binds
same,binding,[3],binds
same,binding,[5],binds
